From the supplement of paper PMC12823440, “Inhibitors supercharge kinase turnover through native proteolytic circuits” (Nature, 2025)
Where a name gives a salt, the structure may show the parent alone. This is one part of the list. The calls rarely recur for the same compound in another form.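 Kinases, fused to nanoluciferase, were expressed in K562 cells; luminescence was measured every 4 h from 2 to 18 h as percent of control (DMSO = 100%, positive control = 0%). A time point is decreased if signal falls significantly (2 sigma). Hits were called by the authors by a rule that is not shown; the count of time points alone does not decide it.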

By UniProt entry, the sequences of proteins in these tests, tags left out. Where a name states a change or a piece, a line headed by the entry shows the natural chain unless it says otherwise.
UniProt Q01974, whole entry: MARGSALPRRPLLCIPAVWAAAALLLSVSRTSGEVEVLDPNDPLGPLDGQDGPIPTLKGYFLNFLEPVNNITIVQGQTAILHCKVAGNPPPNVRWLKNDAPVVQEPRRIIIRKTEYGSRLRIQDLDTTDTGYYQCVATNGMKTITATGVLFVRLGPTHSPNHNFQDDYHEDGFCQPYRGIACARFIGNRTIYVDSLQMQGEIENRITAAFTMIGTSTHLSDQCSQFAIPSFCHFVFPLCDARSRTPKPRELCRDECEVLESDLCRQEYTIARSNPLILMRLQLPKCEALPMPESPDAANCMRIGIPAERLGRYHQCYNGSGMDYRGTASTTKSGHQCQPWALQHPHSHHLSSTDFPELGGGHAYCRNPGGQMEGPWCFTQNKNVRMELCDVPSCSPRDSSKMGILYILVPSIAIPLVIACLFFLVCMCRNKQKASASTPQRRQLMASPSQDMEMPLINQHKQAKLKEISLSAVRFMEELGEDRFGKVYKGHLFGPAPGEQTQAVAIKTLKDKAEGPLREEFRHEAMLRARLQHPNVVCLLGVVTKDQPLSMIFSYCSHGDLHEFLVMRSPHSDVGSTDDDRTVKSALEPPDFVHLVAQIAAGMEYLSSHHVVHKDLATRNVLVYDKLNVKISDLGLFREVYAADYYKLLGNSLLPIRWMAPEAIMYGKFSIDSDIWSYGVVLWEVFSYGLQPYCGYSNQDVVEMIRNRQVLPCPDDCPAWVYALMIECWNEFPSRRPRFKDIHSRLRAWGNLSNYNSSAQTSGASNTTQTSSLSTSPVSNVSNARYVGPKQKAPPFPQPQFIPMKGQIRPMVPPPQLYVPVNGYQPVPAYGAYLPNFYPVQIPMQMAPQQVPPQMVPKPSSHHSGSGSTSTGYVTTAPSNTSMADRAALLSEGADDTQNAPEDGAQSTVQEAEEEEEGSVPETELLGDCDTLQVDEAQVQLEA
UniProt Q15418, whole entry: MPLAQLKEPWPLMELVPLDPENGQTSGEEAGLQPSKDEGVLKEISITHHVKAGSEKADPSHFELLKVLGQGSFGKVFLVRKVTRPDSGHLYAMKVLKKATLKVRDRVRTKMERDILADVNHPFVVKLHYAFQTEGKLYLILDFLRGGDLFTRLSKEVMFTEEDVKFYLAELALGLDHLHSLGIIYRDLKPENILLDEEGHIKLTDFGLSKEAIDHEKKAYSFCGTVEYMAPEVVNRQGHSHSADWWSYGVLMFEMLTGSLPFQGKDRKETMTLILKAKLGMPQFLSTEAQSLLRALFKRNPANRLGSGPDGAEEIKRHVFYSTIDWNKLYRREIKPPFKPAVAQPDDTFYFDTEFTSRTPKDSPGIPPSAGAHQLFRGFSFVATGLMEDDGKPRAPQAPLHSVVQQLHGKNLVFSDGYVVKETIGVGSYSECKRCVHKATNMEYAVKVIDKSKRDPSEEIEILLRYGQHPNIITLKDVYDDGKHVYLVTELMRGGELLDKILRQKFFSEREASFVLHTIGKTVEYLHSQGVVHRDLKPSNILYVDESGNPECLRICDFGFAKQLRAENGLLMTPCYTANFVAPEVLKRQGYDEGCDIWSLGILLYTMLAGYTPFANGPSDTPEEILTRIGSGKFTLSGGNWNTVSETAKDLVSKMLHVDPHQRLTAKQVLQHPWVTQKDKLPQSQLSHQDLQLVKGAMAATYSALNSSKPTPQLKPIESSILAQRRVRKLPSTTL
UniProt Q9NYA1, whole entry: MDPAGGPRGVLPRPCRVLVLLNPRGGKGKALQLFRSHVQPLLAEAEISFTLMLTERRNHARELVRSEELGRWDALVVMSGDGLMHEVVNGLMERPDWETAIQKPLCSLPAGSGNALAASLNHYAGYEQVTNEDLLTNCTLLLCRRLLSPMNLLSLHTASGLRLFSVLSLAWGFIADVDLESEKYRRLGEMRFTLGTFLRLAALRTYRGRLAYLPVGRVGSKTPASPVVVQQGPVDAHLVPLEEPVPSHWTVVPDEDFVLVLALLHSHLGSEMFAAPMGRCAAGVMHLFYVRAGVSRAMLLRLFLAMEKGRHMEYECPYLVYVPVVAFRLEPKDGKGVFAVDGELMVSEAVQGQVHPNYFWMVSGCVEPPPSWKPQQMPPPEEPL
UniProt Q9Y6E0: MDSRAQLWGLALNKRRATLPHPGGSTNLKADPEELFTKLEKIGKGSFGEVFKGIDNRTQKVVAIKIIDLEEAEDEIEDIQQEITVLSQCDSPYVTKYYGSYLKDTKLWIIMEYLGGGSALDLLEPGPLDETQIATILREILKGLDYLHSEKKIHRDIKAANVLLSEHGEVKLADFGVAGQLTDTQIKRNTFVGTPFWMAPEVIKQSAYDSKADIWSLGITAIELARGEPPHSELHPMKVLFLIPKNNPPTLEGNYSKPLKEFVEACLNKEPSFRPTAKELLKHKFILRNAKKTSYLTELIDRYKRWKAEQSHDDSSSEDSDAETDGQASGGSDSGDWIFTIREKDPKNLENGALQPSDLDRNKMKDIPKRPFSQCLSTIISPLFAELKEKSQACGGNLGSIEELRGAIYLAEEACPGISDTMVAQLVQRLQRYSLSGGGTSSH
UniProt Q15208: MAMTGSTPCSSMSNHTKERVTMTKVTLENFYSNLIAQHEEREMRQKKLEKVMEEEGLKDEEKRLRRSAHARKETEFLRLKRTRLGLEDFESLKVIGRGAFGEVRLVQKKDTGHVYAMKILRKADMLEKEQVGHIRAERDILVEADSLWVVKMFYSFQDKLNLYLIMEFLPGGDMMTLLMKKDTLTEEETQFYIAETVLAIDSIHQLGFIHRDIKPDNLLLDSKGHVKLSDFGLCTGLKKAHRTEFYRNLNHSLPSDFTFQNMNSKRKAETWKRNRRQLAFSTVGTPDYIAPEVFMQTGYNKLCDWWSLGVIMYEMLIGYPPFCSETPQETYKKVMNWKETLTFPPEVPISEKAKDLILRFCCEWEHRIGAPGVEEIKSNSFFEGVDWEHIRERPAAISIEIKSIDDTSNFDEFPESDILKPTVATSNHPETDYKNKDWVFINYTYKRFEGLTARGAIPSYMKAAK
UniProt P42680: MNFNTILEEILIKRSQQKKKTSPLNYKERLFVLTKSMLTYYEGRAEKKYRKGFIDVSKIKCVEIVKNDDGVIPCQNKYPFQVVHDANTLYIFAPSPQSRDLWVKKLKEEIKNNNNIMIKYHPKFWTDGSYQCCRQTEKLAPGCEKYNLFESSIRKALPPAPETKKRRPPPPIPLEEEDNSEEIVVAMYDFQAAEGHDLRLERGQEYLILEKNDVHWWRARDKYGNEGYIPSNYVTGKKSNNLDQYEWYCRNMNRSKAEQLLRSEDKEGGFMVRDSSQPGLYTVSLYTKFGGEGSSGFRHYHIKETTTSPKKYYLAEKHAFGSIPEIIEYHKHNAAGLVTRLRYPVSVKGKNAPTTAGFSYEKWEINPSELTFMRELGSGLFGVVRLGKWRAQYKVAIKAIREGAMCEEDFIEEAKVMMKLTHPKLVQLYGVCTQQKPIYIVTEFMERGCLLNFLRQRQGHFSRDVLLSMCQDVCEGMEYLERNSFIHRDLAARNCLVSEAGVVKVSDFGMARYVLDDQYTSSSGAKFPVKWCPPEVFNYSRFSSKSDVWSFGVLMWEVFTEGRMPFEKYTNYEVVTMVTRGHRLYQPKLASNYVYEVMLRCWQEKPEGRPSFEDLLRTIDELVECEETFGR
UniProt P29597: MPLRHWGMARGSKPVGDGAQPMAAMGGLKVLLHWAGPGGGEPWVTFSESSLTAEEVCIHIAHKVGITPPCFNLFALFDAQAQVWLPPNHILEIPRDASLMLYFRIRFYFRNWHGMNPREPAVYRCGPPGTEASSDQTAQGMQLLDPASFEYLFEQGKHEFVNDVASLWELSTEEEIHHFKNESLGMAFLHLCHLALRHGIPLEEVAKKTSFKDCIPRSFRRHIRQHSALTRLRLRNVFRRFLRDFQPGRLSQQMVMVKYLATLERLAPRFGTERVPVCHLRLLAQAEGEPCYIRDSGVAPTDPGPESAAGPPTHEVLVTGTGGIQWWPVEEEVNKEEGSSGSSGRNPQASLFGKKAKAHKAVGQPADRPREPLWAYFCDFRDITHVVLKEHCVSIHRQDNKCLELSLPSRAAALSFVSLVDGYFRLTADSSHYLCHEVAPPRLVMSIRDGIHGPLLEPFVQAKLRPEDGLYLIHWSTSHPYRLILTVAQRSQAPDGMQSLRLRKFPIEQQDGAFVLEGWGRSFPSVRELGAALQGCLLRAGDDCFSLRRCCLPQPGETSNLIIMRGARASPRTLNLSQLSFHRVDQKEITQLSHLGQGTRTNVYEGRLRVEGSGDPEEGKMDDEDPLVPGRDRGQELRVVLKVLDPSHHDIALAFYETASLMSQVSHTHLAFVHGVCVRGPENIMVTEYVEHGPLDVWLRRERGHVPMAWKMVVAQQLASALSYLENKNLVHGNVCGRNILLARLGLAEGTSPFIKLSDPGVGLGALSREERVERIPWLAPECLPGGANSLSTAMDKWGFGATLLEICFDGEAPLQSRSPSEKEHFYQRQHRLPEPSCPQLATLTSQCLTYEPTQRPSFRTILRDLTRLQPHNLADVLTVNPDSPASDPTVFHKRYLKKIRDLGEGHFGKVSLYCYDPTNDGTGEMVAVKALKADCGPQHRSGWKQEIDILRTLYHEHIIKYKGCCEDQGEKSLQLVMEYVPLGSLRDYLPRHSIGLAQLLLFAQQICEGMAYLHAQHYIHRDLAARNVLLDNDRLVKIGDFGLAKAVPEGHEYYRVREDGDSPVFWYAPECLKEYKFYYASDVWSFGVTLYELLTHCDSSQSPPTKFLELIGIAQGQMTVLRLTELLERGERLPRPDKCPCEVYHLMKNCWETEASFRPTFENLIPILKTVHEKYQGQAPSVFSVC
UniProt Q6PHR2: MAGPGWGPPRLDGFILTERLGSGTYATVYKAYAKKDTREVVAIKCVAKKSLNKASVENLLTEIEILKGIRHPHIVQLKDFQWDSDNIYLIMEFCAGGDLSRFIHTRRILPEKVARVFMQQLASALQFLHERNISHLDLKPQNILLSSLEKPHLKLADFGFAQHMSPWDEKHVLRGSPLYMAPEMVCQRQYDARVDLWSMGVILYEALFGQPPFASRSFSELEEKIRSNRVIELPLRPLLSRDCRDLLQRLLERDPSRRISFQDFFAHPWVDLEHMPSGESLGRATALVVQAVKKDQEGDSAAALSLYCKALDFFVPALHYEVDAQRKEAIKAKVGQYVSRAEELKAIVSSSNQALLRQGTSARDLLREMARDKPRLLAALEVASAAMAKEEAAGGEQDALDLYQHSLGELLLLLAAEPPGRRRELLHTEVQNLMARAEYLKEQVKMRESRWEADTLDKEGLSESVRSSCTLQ
UniProt P07947, whole entry, looked up: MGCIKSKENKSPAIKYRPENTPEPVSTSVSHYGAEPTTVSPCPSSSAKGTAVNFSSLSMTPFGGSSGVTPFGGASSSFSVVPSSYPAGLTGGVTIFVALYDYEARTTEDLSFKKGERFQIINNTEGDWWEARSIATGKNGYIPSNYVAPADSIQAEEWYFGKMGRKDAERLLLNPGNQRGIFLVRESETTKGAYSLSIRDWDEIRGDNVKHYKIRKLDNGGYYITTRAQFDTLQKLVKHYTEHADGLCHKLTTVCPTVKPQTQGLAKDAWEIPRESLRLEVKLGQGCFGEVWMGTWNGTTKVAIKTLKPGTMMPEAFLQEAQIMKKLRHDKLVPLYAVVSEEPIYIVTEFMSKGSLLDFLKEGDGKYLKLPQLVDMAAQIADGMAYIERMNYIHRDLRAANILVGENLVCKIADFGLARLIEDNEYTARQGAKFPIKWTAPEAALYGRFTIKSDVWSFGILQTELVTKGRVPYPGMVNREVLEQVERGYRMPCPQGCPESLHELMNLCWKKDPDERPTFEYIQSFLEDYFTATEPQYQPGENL
UniProt P50613: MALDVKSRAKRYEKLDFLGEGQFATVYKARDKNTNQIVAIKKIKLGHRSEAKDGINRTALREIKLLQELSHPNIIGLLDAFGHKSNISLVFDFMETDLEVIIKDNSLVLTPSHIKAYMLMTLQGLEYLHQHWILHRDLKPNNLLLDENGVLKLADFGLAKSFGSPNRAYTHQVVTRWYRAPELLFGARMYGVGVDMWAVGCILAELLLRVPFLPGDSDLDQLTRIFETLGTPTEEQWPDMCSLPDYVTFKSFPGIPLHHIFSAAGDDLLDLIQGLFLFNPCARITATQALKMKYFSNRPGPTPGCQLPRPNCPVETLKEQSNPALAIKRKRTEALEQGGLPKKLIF
UniProt P50750, whole entry: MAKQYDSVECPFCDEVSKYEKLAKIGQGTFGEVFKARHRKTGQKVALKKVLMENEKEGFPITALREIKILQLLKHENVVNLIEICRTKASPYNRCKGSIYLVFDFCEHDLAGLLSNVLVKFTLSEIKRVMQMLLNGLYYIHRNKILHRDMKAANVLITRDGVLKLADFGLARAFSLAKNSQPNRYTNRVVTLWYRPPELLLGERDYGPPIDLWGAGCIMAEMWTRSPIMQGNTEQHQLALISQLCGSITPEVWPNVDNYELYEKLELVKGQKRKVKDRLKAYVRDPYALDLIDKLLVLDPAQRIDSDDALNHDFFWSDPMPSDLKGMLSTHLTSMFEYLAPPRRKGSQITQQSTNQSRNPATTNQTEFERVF

Key:
Conditions in all cases: K562; 2-18 h
[1] = molecular target: ROR2 (UniProt Q01974); test: number of time points (of 5) at which kinase-Nluc abundance scored as decreased, DMSO-normalised (count); higher = more persistent destabilization
[2] = molecular target: RPS6KA1 (UniProt Q15418); test: as above
[3] = molecular target: SPHK1 (UniProt Q9NYA1); test: as above
[4] = molecular target: SRC (UniProt P12931); test: as above
[5] = molecular target: STK24 (UniProt Q9Y6E0); test: as above
[6] = molecular target: STK38 (UniProt Q15208); test: as above
[7] = molecular target: SYK (UniProt P43405); test: as above
[8] = molecular target: TEC (UniProt P42680); test: as above
[9] = molecular target: TYK2 (UniProt P29597); test: as above
[10] = molecular target: ULK3 (UniProt Q6PHR2); test: as above
[11] = molecular target: YES1 (UniProt P07947); test: as above
[12] = molecular target: ZAK (UniProt Q9NYL2); test: as above
[13] = molecular target: ZAP70 (UniProt P43403); test: as above
[14] = molecular target: CDK4 (UniProt P11802); test: number of time points (of 4; 2 h point missing) at which kinase-Nluc abundance scored as decreased, DMSO-normalised (count); higher = more persistent destabilization
[15] = molecular target: CDK7 (UniProt P50613); test: as above
[16] = molecular target: CDK9 (UniProt P50750); test: as above

Measured: number of time points

c1cncc(CN2CCC(n3ncc4c(N5CCOCC5)nc(-c5ccc6[nH]ccc6c5)nc43)CC2)c1 (10 µM)
3: [10]
2: [15] | [16]
1: [6] | [12]
0: [1] | [2] | [3] | [4] | [5] | [7] | [8] | [9] | [11] | [13] | [14]

Nc1ncnc2c1c(-c1cccc(OCc3ccccc3)c1)cn2C1CC(CN2CCC2)C1 (stereo not given) (2.5 µM)
0: [1] | [2] | [3] | [4] | [5] | [6] | [7] | [8] | [9] | [10] | [11] | [12] | [13] | [14] | [15] | [16]

O=C(Nc1cn[nH]c1-c1ccccn1)c1nn(C2CCNCC2)cc1Cl (10 µM)
0: [1] | [2] | [3] | [4] | [5] | [6] | [7] | [8] | [9] | [10] | [11] | [12] | [13] | [14] | [15] | [16]

Nc1nc2ccc(Cl)cc2c2nc(-c3ccco3)nn12 (10 µM)
0: [1] | [2] | [3] | [4] | [5] | [6] | [7] | [8] | [10] | [11] | [12] | [13] | [14] | [15] | [16]
1: [9]

CCc1cc2c(cc1N1CCC(N3CCOCC3)CC1)C(C)(C)c1[nH]c3cc(C#N)ccc3c1C2=O [Alectinib (Hydrochloride)] (2 µM)
0: [1] | [2] | [3] | [4] | [5] | [6] | [7] | [8] | [9] | [10] | [11] | [12] | [13] | [14] | [15] | [16]

O=C(O)CCC(=O)Nc1ccc(Br)cn1 [Bikinin] (10 µM)
0: [1] | [2] | [3] | [4] | [5] | [6] | [7] | [8] | [9] | [10] | [11] | [12] | [13] | [14] | [15] | [16]

COc1cc2nccc(Oc3ccc(NC(=O)NC4CC4)c(Cl)c3)c2cc1C(N)=O [Lenvatinib] (10 µM)
3: [9] | [15]
0: [1] | [2] | [4] | [5] | [6] | [7] | [8] | [10] | [11] | [12] | [13] | [14] | [16]
2: [3]

Cc1cc(Nc2ncnc3ccc(NC4=NC(C)(C)CO4)cc23)ccc1Oc1ccn2ncnc2c1 [Tucatinib (hemiethanolate)] (2.5 µM)
0: [1] | [2] | [3] | [4] | [5] | [6] | [7] | [8] | [9] | [10] | [11] | [12] | [13] | [14] | [15] | [16]

Cc1ccc2cc(-c3c(C)ccc(C(=O)c4c(-c5ccccc5)n(C)n(-c5ccccc5)c4=O)c3N)ccc2n1 (2.5 µM)
0: [1] | [2] | [3] | [4] | [5] | [6] | [7] | [8] | [9] | [10] | [11] | [12] | [13] | [14] | [15] | [16]

Cc1cc2ncc(-c3ccc(O)c(O)c3)nc2cc1C [Tyrphostin AG1433] (10 µM)
0: [1] | [2] | [3] | [4] | [5] | [6] | [7] | [8] | [9] | [10] | [11] | [12] | [13] | [14] | [15] | [16]

Cn1nccc1Nc1nccc(-c2ccn([C@H](CO)c3ccc(Cl)c(F)c3)c(=O)c2)n1 [Ravoxertinib] (10 µM)
0: [1] | [2] | [3] | [4] | [5] | [6] | [7] | [8] | [9] | [10] | [11] | [12] | [13] | [14] | [15] | [16]

COc1ccc(-c2ccc3c(N4CCOCC4)nc(N4C[C@@H](C)O[C@@H](C)C4)nc3n2)cc1CO (2.5 µM)
0: [1] | [2] | [3] | [4] | [5] | [6] | [7] | [8] | [9] | [10] | [11] | [12] | [13] | [14] | [15] | [16]

C=CC(=O)Nc1ccc(CN2C(=O)N(c3cc(OC)cc(OC)c3)Cc3cnc(Nc4ccc(N5CCN(C)CC5)cc4)nc32)cc1 (2.5 µM)
3: [3]
0: [1] | [2] | [4] | [5] | [6] | [7] | [8] | [9] | [10] | [11] | [12] | [13] | [14] | [15] | [16]

NC(=O)c1ccc(-c2nc(-c3ccc4c(c3)OCCO4)c(-c3ccccn3)[nH]2)cc1 (10 µM)
0: [1] | [2] | [3] | [4] | [5] | [6] | [7] | [8] | [9] | [10] | [11] | [12] | [13] | [14] | [15] | [16]

CCN1CCN(Cc2ccc(-c3cc4c(N[C@H](C)c5ccccc5)ncnc4[nH]3)cc2)CC1 (2.5 µM)
2: [8] | [9]
3: [10] | [11] | [15]
1: [16]
0: [1] | [2] | [3] | [4] | [5] | [6] | [7] | [12] | [13] | [14]

Cc1ccccc1-c1c2nccc(-c3ccc(F)cc3F)c2cc[n+]1[O-] (10 µM)
0: [1] | [2] | [3] | [4] | [5] | [6] | [7] | [8] | [9] | [10] | [11] | [12] | [13] | [14] | [15] | [16]

Nc1nc(F)nc2c1ncn2[C@@H]1O[C@H](CO)[C@@H](O)[C@@H]1O [Fludarabine] (10 µM)
0: [1] | [2] | [3] | [4] | [5] | [6] | [7] | [8] | [9] | [10] | [11] | [12] | [13] | [14] | [15] | [16]

Oc1ccc(Nc2nc(-c3ccc(Cl)cc3)cs2)cc1 (10 µM)
0: [1] | [2] | [3] | [4] | [5] | [6] | [7] | [8] | [9] | [10] | [11] | [12] | [13] | [14] | [15] | [16]

C=CC(=O)Nc1cccc(Nc2nc(Nc3ccc(N4CCN(C(C)=O)CC4)cc3OC)ncc2C(F)(F)F)c1 [Rociletinib hydrobromide] (10 µM)
0: [1] | [2] | [3] | [4] | [5] | [6] | [7] | [8] | [9] | [10] | [11] | [12] | [13] | [14] | [15] | [16]

CN(C)CCSSCCNC(=O)C1CCN(C(=O)CSc2ccc(Cl)cc2)CC1 (10 µM)
0: [1] | [2] | [3] | [4] | [5] | [6] | [7] | [8] | [9] | [10] | [11] | [12] | [13] | [14] | [15] | [16]

COc1ncc(Cl)cc1S(=O)(=O)Nc1ccc(F)c(C#Cc2cnc(N)nc2)c1F (2.5 µM)
0: [1] | [2] | [3] | [4] | [5] | [6] | [7] | [8] | [9] | [10] | [11] | [12] | [13] | [14] | [15] | [16]

CC#CC(=O)N1CC[C@@H](n2c(=O)n(-c3ccc(Oc4ccccc4)cc3)c3c(N)ncnc32)C1 [Tirabrutinib] (10 µM)
0: [1] | [2] | [3] | [4] | [5] | [6] | [7] | [8] | [9] | [10] | [11] | [12] | [13] | [14] | [15] | [16]

C=CC(=O)Nc1cc(Nc2ncc(Cl)c(-c3c[nH]c4ccccc34)n2)c(OC)cc1N(C)CCN(C)C [Mutant EGFR inhibitor] (2.5 µM)
1: [9] | [12]
4: [10]
3: [15]
0: [1] | [2] | [3] | [4] | [5] | [6] | [7] | [8] | [11] | [13] | [14] | [16]

Arranged by count of non-hydrogen atoms (low to high): part of the list above.
CN(C)CCSSCCNC(=O)C1CCN(C(=O)CSc2ccc(Cl)cc2)CC1 (10 µM)
0: [1] | [2] | [3] | [4] | [5] | [6] | [7] | [8] | [9] | [10] | [11] | [12] | [13] | [14] | [15] | [16]

COc1ncc(Cl)cc1S(=O)(=O)Nc1ccc(F)c(C#Cc2cnc(N)nc2)c1F (2.5 µM)
0: [1] | [2] | [3] | [4] | [5] | [6] | [7] | [8] | [9] | [10] | [11] | [12] | [13] | [14] | [15] | [16]

C=CC(=O)Nc1cccc(Nc2nc(Nc3ccc(N4CCN(C(C)=O)CC4)cc3OC)ncc2C(F)(F)F)c1 [Rociletinib hydrobromide] (10 µM)
0: [1] | [2] | [3] | [4] | [5] | [6] | [7] | [8] | [9] | [10] | [11] | [12] | [13] | [14] | [15] | [16]

Next entries follow:

O=c1[nH]c(=O)n([C@@H]2O[C@H](CO)[C@@H](O)[C@@H]2O)cc1/C=C/Br [Sorivudine] (10 µM)
0: [1] | [2] | [3] | [4] | [5] | [6] | [7] | [8] | [9] | [10] | [11] | [12] | [13] | [14] | [15] | [16]

Cc1c(-c2c(F)cc(C(N)=O)c3[nH]c4c(c23)CC[C@H](C(C)(C)O)C4)cccc1-n1c(=O)c2cccc(F)c2n(C)c1=O (2.5 µM)
0: [1] | [2] | [3] | [4] | [5] | [6] | [7] | [8] | [9] | [10] | [11] | [12] | [13] | [14] | [15] | [16]
